Reference: US20210277109A1 (SYSTIMMUNE, published 2021)
These are yes or no findings as the source states them, for the method shown. Some results given as binding are weak or reduced against the parent protein; the word gives no strength. Blank lines part the entries; values can stand above or below the binder they belong to.

Amino acid sequences for entries named in this document (tags omitted). Residues count along the entry.
recombinant human ROR1 extracellular domain protein (Q01973, residues 30-406): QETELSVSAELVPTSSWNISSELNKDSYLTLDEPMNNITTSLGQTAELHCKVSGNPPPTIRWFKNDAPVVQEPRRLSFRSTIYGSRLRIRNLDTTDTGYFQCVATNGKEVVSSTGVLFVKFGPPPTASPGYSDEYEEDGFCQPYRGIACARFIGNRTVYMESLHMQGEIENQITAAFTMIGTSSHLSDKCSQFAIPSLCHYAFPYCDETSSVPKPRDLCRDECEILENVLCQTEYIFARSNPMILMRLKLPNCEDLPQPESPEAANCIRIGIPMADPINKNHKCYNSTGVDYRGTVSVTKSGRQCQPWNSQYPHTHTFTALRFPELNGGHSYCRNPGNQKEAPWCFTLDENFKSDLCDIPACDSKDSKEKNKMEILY
human ROR1 'Ig-Frizzled domain' (Q01973, residues 30-305): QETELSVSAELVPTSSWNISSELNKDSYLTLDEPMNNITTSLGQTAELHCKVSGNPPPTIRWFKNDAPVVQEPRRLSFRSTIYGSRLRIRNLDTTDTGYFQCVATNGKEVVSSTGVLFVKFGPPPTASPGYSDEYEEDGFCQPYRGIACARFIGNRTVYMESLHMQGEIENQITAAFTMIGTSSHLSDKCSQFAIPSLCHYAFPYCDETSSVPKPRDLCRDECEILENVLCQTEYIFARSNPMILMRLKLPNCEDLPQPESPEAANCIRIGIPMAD
human ROR1 'Frizzled-Kringle domain' (Q01973, residues 165-406): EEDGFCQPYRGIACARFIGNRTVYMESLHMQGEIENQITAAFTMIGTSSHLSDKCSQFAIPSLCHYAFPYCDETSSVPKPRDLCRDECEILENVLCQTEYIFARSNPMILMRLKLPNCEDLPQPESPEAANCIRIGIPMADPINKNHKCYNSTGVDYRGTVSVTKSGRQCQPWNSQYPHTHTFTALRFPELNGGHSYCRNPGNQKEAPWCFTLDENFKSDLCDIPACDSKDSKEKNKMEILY
UniProt Q9Z139, residues 30-403: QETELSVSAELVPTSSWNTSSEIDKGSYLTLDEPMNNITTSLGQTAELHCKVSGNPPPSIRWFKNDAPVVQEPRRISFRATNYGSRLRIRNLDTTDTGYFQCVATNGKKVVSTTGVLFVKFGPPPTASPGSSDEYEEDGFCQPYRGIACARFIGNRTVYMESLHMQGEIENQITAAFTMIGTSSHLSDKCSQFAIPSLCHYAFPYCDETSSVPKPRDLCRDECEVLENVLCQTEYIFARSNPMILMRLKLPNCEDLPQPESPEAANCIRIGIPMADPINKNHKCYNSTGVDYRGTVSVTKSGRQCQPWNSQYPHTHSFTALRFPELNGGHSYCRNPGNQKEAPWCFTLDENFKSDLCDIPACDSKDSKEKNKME

Columns and labels:
[1] = biological target: T1, human ROR1 'Ig-Frizzled domain' (human, UniProt Q01973); test: Octet
T1 construct: used plain or biotinylated

[2] = biological target: mouse ROR1 (serum titer ELISA antigen) (mouse, UniProt Q9Z139 30-403, limits assumed); test: Octet
[3] = biological target: recombinant human ROR1 extracellular domain protein (human) (UniProt Q01973); test: BLI (Octet)
[4] = biological target: T2, human ROR1 'Frizzled-Kringle domain' (human, UniProt Q01973); test: Octet
T2 construct: used plain or biotinylated

- binding [1]: binds
- binding [2]: binds
B1: 324E2 chimeric rabbit/human IgG antibody (antibody, V domains shown)
VH: QSVEESGGRLVTPGTPLTLTCTVSGFSLSNNAITWVRQAPGKGLEYIGIISSSGTTYYASWAKGRFTISKTSSTTVDLKMTSLTTEDTATYFCAGAFSVWGPGTLVTVSS
VL: AQVLTQTPSSVSAAVGGTVTINCQSSQSVNNNDLAWFQQKPGQPPKRLIYWASKLASGVPSRFKGSGSGTQFILTISDLECDDAATYYCAGGYSGNIYGFGGGTEVEVKR
notes: Rabbit variable regions on human gamma-1 and human kappa constant domains

- binding [3]: binds
B4: 324E2 humanized antibody (antibody, human IgG1, kappa, V domains shown)
VH: QSVEESGGGLVQPGGSLRLSCTASGFSLSNNAITWVRQAPGKGLEYIGIISSSGTTYYASSAKGRFTISKDTSKNTVDLQMNSLRAEDTAVYYCAGAFSVWGQGTLVTVSS
VL: DIQMTQSPSSLSASVGDRVTITCQSSQSVNNNDLAWYQQKPGKAPKRLIYWASKLASGVPSRFSGSGSGTEFTLTISNLQPEDFATYYCAGGYSGNIYGFGGGTKVEIKR
notes: Human gamma-1 and human kappa constant domains

- binding [4]: binds
- binding [1]: binds
- binding [2]: binds
B5: 338H4 chimeric rabbit/human IgG antibody (antibody, V domains shown)
VH: QSVEESGGRLVTPGTPLTLTCTVSGFSLSSYAMSWVRQAPGRGLEWIGIIYASGSTYYASWAKGRFTISKTSTTVDLKITSPTTEDTATYFCARIYDGMDLWGPGTLVTVSS
VL: DIVMTQTPASVSAAVGGTVTINCQASQNIYSYLSWYQQKPGQPPKRLIYLASTLASGVPSRFKSSGSGTEYTLTISDLECDDAATYYCQSNYNGNYGFGGGTEVEVKR
notes: as for B1

- binding [3]: binds
B7: 338H4 humanized antibody (antibody, human IgG1, kappa, V domains shown)
VH: EVQLVESGGGLVQPGGSLRLSCTASGFSLSSYAMSWVRQAPGRGLEWIGIIYASGSTYYASSAKGRFTISKDNTKNTVDLQMNSLRAEDTAVYYCARIYDGMDLWGQGTLVTVSS
VL: DIQMTQSPSSLSASVGDRVTINCQASQNIYSYLSWYQQKPGKVPKRLIYLASTLASGVPSRFSGSGSGTDYTLTISSLQPEDVATYYCQSNYNGNYGFGGGTKVEIKR
notes: as for B4

- binding [4]: binds
- binding [2]: binds
B8: 330F11 chimeric rabbit/human IgG antibody (antibody, V domains shown)
VH: QSVEESGGRLVTPGTPLTLTCTVSGFSLNNYWMSWVRQAPGEGLEWIGTISSGAYTWFATWATGRFTISKTSTTVDLSITSPTTEDTATYFCARYSSTTDWTYFNIWGPGTLVTVSS
VL: DVVMTQTPASVEAAVGGTVTIKCQASQSINNYLAWYQQKPGQPPKLLIYRASTLESGVPSRFKGSGSGTQFTLTISDLECADAATYYCQSYNGVGRTAFGGGTEVEFKR
notes: as for B1

- binding [3]: binds
B13: 330F11 humanized antibody (antibody, human IgG1, kappa, V domains shown)
VH: EVQLVESGGGLVQPGGSLRLSCAASGFSLNNYWMSWVRQAPGKGLEWIGTISSGAYTWFATWATGRFTISRDNSKNTLYLQMNSLRAEDTAVYYCARYSSTTDWTYFNIWGQGTLVTVSS
VL: DIQMTQSPSTLSASVGDRVTITCQASQSINNYLAWYQQKPGKAPKLLIYRASTLESGVPSRFSGSGSGTEFTLTISSLQPDDFATYYCQSYNGVGRTAFGGGTKVEIKR
notes: as for B4

Continued, binder first:

B2: 226E12 humanized antibody (antibody, human IgG1, kappa, V domains shown)
VH: EVQLLESGGGLVQPGGSLRLSCAASGFSLSNYYMSWVRQAPGKGLEWIGAINADSDNTWYPSWVKGRFTISRDNSKNTLYLQMNSLRAEDTAVYYCARSVSNNFAEYNIWGQGTLVTVSS
VL: DIQMTQSPSSLSASVGDRVTITCQASQRIYSYLAWYQQKPGKVPKLLIYRASTLASGVPSRFSGSGSGTDFTLTISSLQPEDVATYYCQQGASMVDVENMFGGGTKVEIKR
notes: as for B4
- binding [3]: binds

B3: 323H7 chimeric rabbit/human IgG antibody (antibody, V domains shown)
VH: QEQLKESGGGLVTPGGTLTLTCTASGFTISRYHMTWVRQAPGKGLEWIGHIYVNNDDTDYASWAKGRFTISKTSTTVDLKITSPTTEDTATYFCARLDVGGGGAYIGDIWGQGTLVTVSS
VL: QAVVTQTPSSVSAAVGGTVTISCQSSQSVYNNNDLAWYQQKPGQPPKLLIYYASTLASGVSSRFKGSGSGTQFTLAISDLECDDSATYYCAGGYDTDGLDTFAFGGGTEVEVKR
notes: as for B1
- binding [1]: binds

B6: 323D10 chimeric rabbit/human IgG antibody (antibody, V domains shown)
VH: QSVEESGGRLVTPGTPLTLTCTVSGFSLSRNAMNWVRQAPGKGLEYIGYISTSGTTFYANWVKGRFTISKTSTTVDLKMTSLTTEDTATYFCARDYNYAMDIWGQGTLVTVSS
VL: AIDLTQTPASVEAAVGGTITINCQASESISSWLAWYQQKPGQRPKLLIYETSKLASGVPPRFSGSGSGTQFTLTISGVQCDDAATYYCQSYYRINNIGYDNAFGGGTEVEFKR
notes: as for B1
- binding [1]: binds
- binding [2]: binds

B9: 323D10 humanized antibody (antibody, human IgG1, kappa, V domains shown)
VH: EVQLVESGGGLVQPGGSLRLSCTASGFSLSRNAMNWVRQAPGKGLEYIGYISTSGTTFYANSVKGRFTISKDNTKNTVDLQMNSLRAEDTAVYYCARDYNYAMDIWGQGTLVTVSS
VL: AIDLTQSPSTLSASVGGTITINCQASESISSWLAWYQQKPGKAPKLLIYETSKLASGVPSRFSGSGSGTEFTLTISSLQPDDFATYYCQSYYRINNIGYDNAFGGGTKVEIKR
notes: as for B4
- binding [3]: binds

B10: 324C7 chimeric rabbit/human IgG antibody (antibody, V domains shown)
VH: QSVEESGGRLVTPGTPLTLTCTVSGFSLSGAGVSWVRQAPGKGLEWIGYIDSGATTYYASWAKGRFTISKASTTVDLKIASPTTEDTATYFCARGYYGMDPWGQGTLVTVSS
VL: DIVMTQTPASVEVAVGGTVTIKCQASQNIGSDLAWYQQKPGQPPKLLIYTTSNLASGVPSRFKGSGSGTGFTLTISDLECADAASYCCQGGYFSGRNIYGNAFGGGTEVVVKR
notes: as for B1
- binding [1]: binds

B11: 323H7 humanized antibody (antibody, human IgG1, kappa, V domains shown)
VH: EVQLLESGGGLVQPGGSLRLSCAASGFTISRYHMTWVRQAPGKGLEWIGHIYVNNDDTDYASSAKGRFTISRDNSKNTLYLQMNSLRAEDTATYFCARLDVGGGGAYIGDIWGQGTLVTVSS
VL: DIQMTQSPSSLSASVGDRVTITCQSSQSVYNNNDLAWYQQKPGKVPKLLIYYASTLASGVPSRFSGSGSGTDFTLTISSLQPEDVATYYCAGGYDTDGLDTFAFGGGTKVEIKR
notes: as for B4
- binding [3]: binds

B12: 324C6 humanized antibody (antibody, human IgG1, kappa, V domains shown)
VH: QSLVESGGGLVQPGGSLRLSCTASGFSLSRYYMTWVRQAPGKGLEWIGTIYTSGSTWYASWTKGRFTISKDNTKNTVDLQMNSLRAEDTAVYYCARSYYGGDKTGLGIWGQGTLVTVSS
VL: DIQMTQSPSTLSASVGDRVTITCQASQSIDSWLSWYQQKPGKAPKLLIYQASTLASGVPSRFSGSGSGTEFTLTISSLQPDDFATYYCQSAYGVSGTSSYLYTFGGGTKVEIKR
notes: as for B4
- binding [3]: binds
